± gives the standard error. The uncertainty is large for many entries.

First the molecules themselves.
B1: glmS ribozyme (parent)
chain: AUAAAAGCGCCAGAACUACAGAAAUGUAGUUGACGAGGAGGAGGUUUAUCGAAUUUUCGGCGGAUGCCUCCAAA

This data set covers variants of B1. Briefly: self-cleavage kobs at 10000 uM GlcN6P; higher = faster cleavage; RNA array. The conditions noted are these: with glucosamine-6-phosphate. An outline of the steps: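 E. coli RNA polymerase transcribed barcoded ribozyme variants in situ on sequenced MiSeq chips, which were tracked via a hybridised Cy3 probe at 37 °C. Tiles were imaged over ~14 h after glucosamine-6-phosphate (40 μM to 10 mM) in HEPES/KCl/Mg(OAc)2 buffer was flowed in. Normalised per-tile medians were fit to one- or two-exponential decays for kobs, and kcat and KM came from weighted Michaelis–Menten fits.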
With AUAAAAGCGCCAGAACUACAGAAAUGUAGUUGACGAGGAGGAGGUUUAUCGAAUUUUAGGCGGGUGCCUCAAAA, the “self-cleavage kobs at 10000 uM GlcN6P” value was determined as 2.39e-05 ± 2.1e-05 s⁻¹.
Under AUAAAAGCGCCAGAACUACAGAAAUGUAGUUGACGAGGAGGAGGUUUAUCGAAUUUACGGCGGAAGCCUCCAAA stands 2.34e-05 ± 2.1e-05 s⁻¹; under AUAAAAGCGCCAGAACUACAGAAAUGUAGUUGACGAGGAGGAGGUUUAUCGAAUUUUGGGCGGGUGCAUCCAAA, 2.7e-05 ± 1.6e-05 s⁻¹; under AUAAAAGCGCCAGAACUACAGAAAUGUAGUUGACGAGGAGGAGGUUUAUCGAAUUUUGGGCGGAUCCCUCCAAA, 2.13e-05 ± 1.2e-05 s⁻¹.
On to AUAAAAGCGCCAGAACUACAGAAAUGUAGUUGACGAGGAGGAGGUUUAUCGAAUUUUCGGCGGAUGCGUCGAAA, for which the “self-cleavage kobs at 10000 uM GlcN6P” value was found to be 1.8e-05 ± 9.7e-06 s⁻¹.
Under AUAAAAGCGCCAGAACUACAGAAAUGUAGUUGACGAGGAGGAGGUUUAUCGAAUUUUGGGCGGAUGUCUCGAAA stands 2.46e-05 ± 1.7e-05 s⁻¹; under AUAAAAGCGCCAGAACUACAGAAAUGUAGUUGACGAGGAGGAGGUUUAUCGAAUUUUCGGCGGAGGACUGCAAA, 1.77e-05 ± 1.4e-05 s⁻¹; under AUAAAAGCGCCAGAACUACAGAAAUGUAGUUGACGAGGAGGAGGUUUAUCGAAUUUUCGACGGGUGCCUCCAAA, 1.97e-05 ± 1e-05 s⁻¹.
Under AUAAAAGCGCCAGAACUACAGAAAUGUAGUUGACGAGGAGGAGGUUUAUCGAAUUUUGGGCGGAUGCCUCGAAA stands 1.85e-05 ± 1.6e-05 s⁻¹.

Values taken from the supplement of paper PMC7125110.
